“Also recorded” adds a separate entry of the source.
Experiment: Photolysis of peresters and analysis of photoproducts
Type: physicochemical
Conditions: for deuterium incorporation in recovered perester: NMR; for deuterium incorporation in mesityl phenyl ketone product: mass spectrometry; for Norrish type II reaction / competing ketone photoreactions: irradiation
Experimental: The amount of perester used is in the range of 300-500 mg. The solutions are placed in Pyrex tubes, flushed with nitrogen for 10 min., and sealed with a rubber cap.
After the irradiation, the yield of CO2 is measured by applying N2 pressure and trapping the CO2 with a Ba(OH)2 solution. The photolyzed solutions are evaporated (in the case of perester Ia treatment with excess diazomethane gives the best separation procedure) and again evaporated. Chromatography over 2 mm silica gel plates (E. Merck) with dichloromethane as the developing solvent separates the products. Extraction of the silica gel is done with ether. The identity of each sample is confirmed by GLC or high-pressure LC by comparison with authentic samples or by melting points of the solids.
This is shown by comparison with an authentic sample and combination of spectroscopic techniques. […] The same product is formed when 4-benzoylbenzoic acid is irradiated for 2 hours in CH3 OH in 26% yield. The structure of this secondary photoproduct is shown by independent synthesis (reduction of methyl 4-benzoylbenzoate by NaBH4). Among other secondary photoproducts found in small amounts is a mixture of pinacols. These are confirmed by synthesis of a similar pinacol mixture upon irradiation of methyl 4-benzoylbenzoate in isopropyl alcohol.
After photolysis of tert-butyl-4-(2',4',6'-trimethylbenzoyl)perbenzoate (1c) (300 mg in 20 mL of CH3 OH) for 1 hour, the following products are found: 14.1% of CO2, 15.6% of phenyl mesityl ketone, 56.6% of starting perester, and 21.8% of the corresponding acid.
The recovered perester is irradiated again in cyclohexane solution (25 mL) for 4 hours. The following products are found: carbon dioxide, 44%; bicyclohexyl (21 mg); mesityl phenyl ketone (52%); and the corresponding acid, 46%.
After photolysis of tert-butyl-.rho.-butyrylperbenzoate (1e) (1 mmol in 30 mL of CH3 OH) for about 85 minutes, the following products are found: carbon dioxide, 11%; butyrophenone, 10% (confirmed by high-pressure LC): methyl .rho.-butyrylbenzoate (25%) (mp 83°-85° C. from hexane) confirmed by independent synthesis); and .rho.-butyrylbenzoic acid (52%) (confirmed by preparation of the methyl ester).

[1] = 300 mg in 20 mL of CH3 OH, 1 hour
[2] = recovered perester, cyclohexane (25 mL), 4 hours
[3] = cyclohexane, 2.4 × 10^-2 M, 6 h, 300 nm
[4] = methanol, 2.4 × 10^-2 M, 1 h, 300 nm
[5] = CH3 OH^d, […] 10^-2 M, 1 h, 300 nm
[6] = cyclohexane, 2.0 × 10^-2 M, 2.5 h, 300 nm
[7] = cyclohexane, 2.2 × 10^-2 M, 4 h, 300 nm
[8] = methanol, 4.2 × 10^-2 M, 1 h, 300 nm
[9] = 1 mmol in 30 mL of CH3 OH, about 85 minutes
[10] = methanol, 3.3 × 10^-2 M, 1.5 h, 300 nm

Cc1cc(C)c(C(=O)c2ccc(C(=O)OOC(C)(C)C)cc2)c(C)c1 [1c, Tert-butyl-4-(2',4',6'-trimethylbenzoyl)perbenzoate]
CO2 found after photolysis [1]: 14.1%
corresponding acid found after photolysis [1]: 21.8%
phenyl mesityl ketone found after photolysis [1]: 15.6%
starting perester found after photolysis [1]: 56.6%
deuterium incorporation in recovered perester: no deuterium incorporation
deuterium incorporation in mesityl phenyl ketone product: No deuterium incorporation
bicyclohexyl found after photolysis [2]: 21 mg
carbon dioxide found after photolysis [2]: 44%
corresponding acid found after photolysis [2]: 46%
mesityl phenyl ketone found after photolysis [2]: 52%

O=C(O)c1ccc(C(=O)c2ccccc2)cc1 [4-benzoylbenzoic acid, reference compound]
yield of photoproduct C6 H5 CHOH--p-C6 H4 COOH (irradiated for 2 hours in CH3 OH): 26%

CC(C)(C)OOC(=O)c1ccc(C(=O)c2ccccc2)cc1 [Ia, t-Butyl-4-Benzoylperbenzoate]
benzophenone product [3]: 36 mol %
benzoylbenzoic acid product [3]: 55 mol %
unreacted perester [3]: 0 mol %
secondary photolysis products (irradiation in cyclohexane): bicyclohexyl as a secondary photolysis product
benzophenone product [4]: 29 mol %
benzoylbenzoic acid product [4]: 60 mol %
unreacted perester [4]: 0 mol %

Cc1cc(C)c(C(=O)c2ccc(C(=O)OOC(C)(C)C)cc2)c(C)c1 [Ib, Tert-butyl-4-(2',4',6'-trimethylbenzoyl)perbenzoate]
benzophenone product [5]: 16 mol %
benzoylbenzoic acid product [5]: 21 mol %
unreacted perester [5]: 57 mol %
deuterium incorporation in recovered perester: nor is there any deuterium in the recovered Ib; also recorded: no deuterium incorporation is observed
benzophenone product [6]: 20 mol %
benzoylbenzoic acid product [6]: 27 mol %
unreacted perester [6]: 29 mol %
benzophenone product [7]: 43 mol %
benzoylbenzoic acid product [7]: 46 mol %
unreacted perester [7]: 0 mol %
Norrish type II reaction / competing ketone photoreactions: photochemical perester decomposition from Ib is faster than is the intramolecular hydrogen abstraction
deuterium incorporation in mesityl phenyl ketone product: produces no deuterated mesitoyl
benzophenone product [8]: 19 mol %
benzoylbenzoic acid product [8]: 13 mol %
unreacted perester [8]: 61 mol %

CCCC(=O)c1ccc(C(=O)OOC(C)(C)C)cc1 [Ie, Tert-butyl-.rho.-butyrylperbenzoate]
butyrophenone found after photolysis [9]: 10%
carbon dioxide found after photolysis [9]: 11%
methyl p-butyrylbenzoate found after photolysis [9]: 25%
p-butyrylbenzoic acid found after photolysis [9]: 52%
Norrish type II reaction / competing ketone photoreactions: no evidence for a competing Norrish type II reaction
Norrish type II reaction / competing ketone photoreactions (listed as 1e): No products of a Norrish type II reaction are found
benzophenone product (corresponding ketone) [10]: 10 mol %
benzoylbenzoic acid product (corresponding acid) [10]: 52 mol %
unreacted perester [10]: 0 mol %
